Some of the results follow.
Tests used:
Test in all cases: glycan array binding signal (z-score within array); higher = stronger binding
Details in all cases: glycan notation: IUPAC condensed, linker removed
[1] = biological target: Neu5Ac(a2-6)GlcNAc(b1-4)GlcNAc(b1-4)GlcNAc
Method in brief: (§1)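 The Consortium for Functional Glycomics database supplied 3228 glycan arrays, of which those lacking an available protein sequence were dropped. The binding signal, a within-array Z-score, was averaged across arrays of the same protein sequence and across linkers. Negative scores can be read as non-binding.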

Neu5Ac(a2-8)Neu5Ac = biological target: Neu5Ac(a2-8)Neu5Ac
Method in brief: as §1

[2] = biological target: Neu5Ac(a2-8)Neu5Ac(a2-3)Gal(b1-3)GalNAc(b1-4)[Neu5Ac(a2-3)]Gal(b1-4)Glc
Method in brief: as §1

[3] = biological target: Neu5Ac(a2-8)Neu5Ac(a2-3)Gal(b1-3)GalNAc(b1-4)[Neu5Ac(a2-8)Neu5Ac(a2-3)]Gal(b1-4)Glc
Method in brief: as §1

[4] = biological target: Neu5Ac(a2-8)Neu5Ac(a2-3)Gal(b1-4)Glc
Method in brief: as §1

[5] = biological target: Neu5Ac(a2-8)Neu5Ac(a2-3)Gal(b1-4)GlcNAc
Method in brief: as §1

[6] = biological target: Neu5Ac(a2-8)Neu5Ac(a2-3)[Gal(b1-3)GalNAc(b1-4)]Gal(b1-4)Glc
Method in brief: as §1

[7] = biological target: Neu5Ac(a2-8)Neu5Ac(a2-3)[GalNAc(b1-4)]Gal(b1-4)Glc
Method in brief: as §1

[8] = biological target: Neu5Ac(a2-8)Neu5Ac(a2-8)Neu5Ac
Method in brief: as §1

[9] = biological target: Neu5Ac(a2-8)Neu5Ac(a2-8)Neu5Ac(a2-3)Gal(b1-4)Glc
Method in brief: as §1

[10] = biological target: Neu5Ac(a2-8)Neu5Ac(a2-8)Neu5Ac(a2-3)[Gal(b1-3)GalNAc(b1-4)]Gal(b1-4)Glc
Method in brief: as §1

[11] = biological target: Neu5Ac(a2-8)Neu5Ac(a2-8)Neu5Ac(a2-3)[GalNAc(b1-4)]Gal(b1-4)Glc
Method in brief: as §1

[12] = biological target: Neu5Ac(a2-8)Neu5Ac(a2-8)Neu5Ac(a2-8)Neu5Ac(a2-3)[GalNAc(b1-4)]Gal(b1-4)Glc
Method in brief: as §1

[13] = biological target: Neu5Ac(a2-8)Neu5Gc(a2-3)Gal(b1-4)GlcNAc
Method in brief: as §1

[14] = biological target: Neu5Ac(b2-6)Gal(b1-4)GlcNAc
Method in brief: as §1

Neu5Ac(b2-6)GalNAc = biological target: Neu5Ac(b2-6)GalNAc
Method in brief: as §1

[15] = biological target: Neu5Ac9Ac(a2-3)Gal(b1-3)GlcNAc
Method in brief: as §1

[16] = biological target: Neu5Ac9Ac(a2-3)Gal(b1-4)GlcNAc
Method in brief: as §1

[17] = biological target: Neu5Ac9Ac(a2-6)Gal(b1-4)GlcNAc
Method in brief: as §1

[18] = biological target: Neu5Gc(a2-3)Gal(b1-3)GlcNAc
Method in brief: as §1

[19] = biological target: Neu5Gc(a2-3)Gal(b1-3)[Fuc(a1-4)]GlcNAc
Method in brief: as §1

Neu5Gc(a2-3)Gal(b1-4)Glc = biological target: Neu5Gc(a2-3)Gal(b1-4)Glc
Method in brief: as §1

[20] = biological target: Neu5Gc(a2-3)Gal(b1-4)GlcNAc
Method in brief: as §1

[21] = biological target: Neu5Gc(a2-3)Gal(b1-4)GlcNAc(b1-3)Gal(b1-4)GlcNAc(b1-2)Man(a1-3)[Neu5Gc(a2-3)Gal(b1-4)GlcNAc(b1-3)Gal(b1-4)GlcNAc(b1-2)Man(a1-6)]Man(b1-4)GlcNAc(b1-4)GlcNAc
Method in brief: as §1

[22] = biological target: Neu5Gc(a2-3)Gal(b1-4)[Fuc(a1-3)]GlcNAc
Method in brief: as §1

[23] = biological target: Neu5Gc(a2-6)Gal(b1-4)GlcNAc
Method in brief: as §1

Neu5Gc(a2-6)GalNAc = biological target: Neu5Gc(a2-6)GalNAc
Method in brief: as §1

[24] = biological target: Neu5Gc(a2-8)Neu5Ac(a2-3)Gal(b1-4)GlcNAc
Method in brief: as §1

[25] = biological target: Neu5Gc(a2-8)Neu5Gc(a2-3)Gal(b1-4)GlcNAc
Method in brief: as §1

[26] = biological target: Neu5Gc(a2-8)Neu5Gc(a2-3)Gal(b1-4)GlcNAc(b1-3)Gal(b1-4)GlcNAc
Method in brief: as §1

[27] = biological target: Neu5Gc(a2-8)Neu5Gc(a2-6)Gal(b1-4)GlcNAc
Method in brief: as §1

[28] = biological target: Neu5Gc(b2-6)Gal(b1-4)GlcNAc
Method in brief: as §1

B1: GS13814A-bth-462-26-462 (Bacteroides thetaiotaomicron) (protein)
chain: DDRDNLMVNDQIGLLHSTYTETEIFRGMDTPYQLFVIKSGKGKQETEVSISVDETVLQSYNTDNGTSIQLLPSDCYTILQPALRLNDSDYRKAFDIKWNADRLSDLLSTGKEYGLPIQMSVVQNFISADDERLKTIIVPTIKEPYLQMDVPGMSPVTDFMPTFGDLNERELFVKIRTNYSNDEDISFQIEVDPQLVIDYNTAHGTAYKMLPESSFTVDNKGVILTGMKETFIKIKYHKKGLIPEEGTYLFGDYVLPLRITSVSKYGISPDAASKLYTVKFQPDPIDKKGWSVIDFNNCCTQDGGWYLNMGWGVESLIDNNPGTQWLCRWDVKEPLPYYFVFDMGKEYTLFRFGFANPVAPAAHVWAGTSKAGYVEASIDNENWVKLKDWTSPKIGEPNVNMDVPATQARYIRFVITDTYPTYDGLRVSLGEVYAWGM
[1]
  glycan array binding signal (z-score): 0.478
Neu5Ac(a2-8)Neu5Ac
  glycan array binding signal (z-score): 0.849
[2]
  glycan array binding signal (z-score): -0.32
[3]
  glycan array binding signal (z-score): 0.933
[4]
  glycan array binding signal (z-score): -0.694
[5]
  glycan array binding signal (z-score): -1.27
[6]
  glycan array binding signal (z-score): 0.136
[7]
  glycan array binding signal (z-score): 0.343
[8]
  glycan array binding signal (z-score): -0.33
[9]
  glycan array binding signal (z-score): -1.35
[10]
  glycan array binding signal (z-score): -0.216
[11]
  glycan array binding signal (z-score): 0.634
[12]
  glycan array binding signal (z-score): -0.032
[13]
  glycan array binding signal (z-score): -1.02
[14]
  glycan array binding signal (z-score): -0.696
Neu5Ac(b2-6)GalNAc
  glycan array binding signal (z-score): -0.699
[15]
  glycan array binding signal (z-score): 0.744
[16]
  glycan array binding signal (z-score): -0.633
[17]
  glycan array binding signal (z-score): -0.306
[18]
  glycan array binding signal (z-score): -0.264
[19]
  glycan array binding signal (z-score): -0.767
Neu5Gc(a2-3)Gal(b1-4)Glc
  glycan array binding signal (z-score): 0.433
[20]
  glycan array binding signal (z-score): 1.47
[21]
  glycan array binding signal (z-score): -0.487
[22]
  glycan array binding signal (z-score): -0.204
[23]
  glycan array binding signal (z-score): 1.43
Neu5Gc(a2-6)GalNAc
  glycan array binding signal (z-score): 0.092
[24]
  glycan array binding signal (z-score): -0.879
[25]
  glycan array binding signal (z-score): -0.502
[26]
  glycan array binding signal (z-score): 1.31
[27]
  glycan array binding signal (z-score): -0.069
[28]
  glycan array binding signal (z-score): -0.067

Reference: the supplement of paper PMC8728848
